From ChEMBL document CHEMBL1141721, “Structure-toxicity relationship of aminoglycosides: correlation of 2'-amine basicity with acute toxicity in pseudo-disaccharide scaffolds” (Bioorg Med Chem, 2008)
Converted amounts (≈) assume the structure as drawn.

Assays:
Assay type in all cases: functional
Pseudomonas aeruginosa [1] = experiment: Antimicrobial activity against Pseudomonas aeruginosa 584/5 isolate by double-microdilution method
Summary of the method: (§1)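 Double-microdilution method following NCCLS, starting at 384 µg/mL of compound with doubling dilutions. Run in triplicate (a table footnote says duplicates), with analogous results in three separate experiments.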

Escherichia coli [2] = experiment: Antimicrobial activity against Escherichia coli ATCC 25922 by double-microdilution method; summary of the method: as §1
Escherichia coli [3] = experiment: Antimicrobial activity against Escherichia coli XL1 expressing APH(3')-1a by double-microdilution method; summary of the method: as §1
Escherichia coli [4] = experiment: Antimicrobial activity against Escherichia coli R477-100 by double-microdilution method
Escherichia coli [5] = experiment: Inhibition of translation in Escherichia coli S30 extract by coupled transcription/translation assay
Summary of the method: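 E. coli S30 extract for circular DNA with pBES-Tluc plasmid, coupled transcription/translation. 25 µL reactions with varied aminoglycoside concentrations, 60 min at 37 °C, then 5 min on ice. Diluted into Tris-phosphate 25 mM pH 7.8 buffer with DTT, CDTA, glycerol, Triton X-100 and BSA. Luciferase luminescence read at once; IC50 fitted from concentration-response curves of at least two independent experiments.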

Pseudomonas aeruginosa [6] = experiment: Antimicrobial activity against Pseudomonas aeruginosa ATCC 27853 by double-microdilution method; summary of the method: as §1

CNC1C(O)C(OC2C(N)CC(N)C(OC3OC(CN)CCC3N)C2O)OCC1(C)O (stereo unspecified) [GENTAMICIN C1A] showed an MIC (Pseudomonas aeruginosa [1]) of 48 µg/mL (≈ 107 µM), an MIC (Escherichia coli [2]) of 96 µg/mL (≈ 214 µM) and an MIC (Escherichia coli [3]) of 12 µg/mL (≈ 26.7 µM). It also gave an MIC (Escherichia coli [4]) of 48 µg/mL (≈ 107 µM), an IC50 (Escherichia coli [5]) of 59 nM and an MIC (Pseudomonas aeruginosa [6]) of 12 µg/mL (≈ 26.7 µM).
